Experimental data reported in PMC3762725.
Substitutions are numbered along the chain they refer to. Results are given in words; binding and its absence hold for the method and conditions named. For some of these results: In cells and extracts the contact can be indirect. Some results given as binding are weak or reduced against the parent protein; the word gives no strength. For some of these results: Sequences can lack the tags named with a protein.

Protein sequences, listed by entry. Tags and fused reporters are not part of them. Lines headed by an entry give the natural chain unless they say otherwise; changes in a name come on top.
UniProt Q9UHI6: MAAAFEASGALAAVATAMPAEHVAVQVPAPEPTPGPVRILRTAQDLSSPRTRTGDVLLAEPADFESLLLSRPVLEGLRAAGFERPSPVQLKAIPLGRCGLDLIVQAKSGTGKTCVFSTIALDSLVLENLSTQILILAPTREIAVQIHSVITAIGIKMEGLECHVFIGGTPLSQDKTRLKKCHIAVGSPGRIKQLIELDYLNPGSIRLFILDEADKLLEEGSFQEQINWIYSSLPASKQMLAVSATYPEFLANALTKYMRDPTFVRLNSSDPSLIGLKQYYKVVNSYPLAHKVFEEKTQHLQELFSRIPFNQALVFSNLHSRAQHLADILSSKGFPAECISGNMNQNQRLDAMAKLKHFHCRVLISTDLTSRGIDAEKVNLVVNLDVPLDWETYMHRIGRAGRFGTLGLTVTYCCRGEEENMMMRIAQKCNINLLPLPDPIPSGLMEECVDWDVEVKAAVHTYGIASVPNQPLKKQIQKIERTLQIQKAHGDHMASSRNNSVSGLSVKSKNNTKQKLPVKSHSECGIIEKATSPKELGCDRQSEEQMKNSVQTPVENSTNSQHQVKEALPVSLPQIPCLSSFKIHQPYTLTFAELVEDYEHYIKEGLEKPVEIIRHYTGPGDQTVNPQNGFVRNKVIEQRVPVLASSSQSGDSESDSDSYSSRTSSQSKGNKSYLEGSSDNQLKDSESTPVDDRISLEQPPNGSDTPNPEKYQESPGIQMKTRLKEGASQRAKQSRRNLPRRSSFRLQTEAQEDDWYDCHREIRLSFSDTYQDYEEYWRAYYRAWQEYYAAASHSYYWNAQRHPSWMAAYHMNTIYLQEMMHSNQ

Assays:
[1] = biological target: T1, αB-crystallin-LexA fusion protein (wild-type αB-crystallin) (human) (UniProt P02511); experiment: two-hybrid; yeast two-hybrid screen; αB-crystallin-LexA fusion as bait, cDNA library from HeLa cells as preys; data not shown
T1 sequence: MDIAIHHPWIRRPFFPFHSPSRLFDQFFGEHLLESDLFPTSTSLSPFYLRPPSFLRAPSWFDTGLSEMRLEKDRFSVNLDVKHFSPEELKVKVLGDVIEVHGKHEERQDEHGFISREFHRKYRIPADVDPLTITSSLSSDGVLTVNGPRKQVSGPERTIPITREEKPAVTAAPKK

[2] = biological target: T2, non-phosphorylatable αB-crystallin (αB-STA) (human) (UniProt P02511); experiment: co-IP; lysates of transfected HeLa cells (50 mM Tris-HCl pH 7.5, 100 mM NaCl, 0.5% Nonidet P-40, 4°C); precipitated with monoclonal antibody to αB-crystallin on protein G-agarose; blot for Gemin3
T2 sequence: T1 sequence with S19A, S45A, S59A

[3] = biological target: T3, pseudophosphorylated αB-crystallin (αB-STD) (human) (UniProt P02511); experiment: as above
T3 sequence: T1 sequence with S19D, S45D, S59D

[4] = biological target: T4, wild-type αB-crystallin (human) (UniProt P02511); experiment: as above
T4 sequence: T1 sequence

Substance | binding [1] | binding [2] | binding [3] | binding [4]
C-terminal 246 residues of Gemin3 (from UniProt Q9UHI6 579-824) (domain or fragment) | binds |  |  | 
Gemin3 (from UniProt Q9UHI6 1-824) |  | binds | binds | binds
